Patent US5114851A, “Light activated acyl-enzymes” (Duke University, priority 1989, dated 1992)

Experiment: Photolysis of model compounds and cyclization of the cis photoisomer to the coumarin (conventional spectroscopy or flash photolysis)
Type: physicochemical
Description: Preliminary to our studies of the enzyme system, we studied the photochemistry of the model compounds Ethyl-(E)-2-methoxy-4-diethylamino-α-methylcinnamate and Ethyl-(E)-2-hydroxy-4-diethylamino-α-methylcinnamate (hereinafter "DEA acyl", as this compound models DEA acyl-thrombin with ethyl in place of thrombin). Photolysis of Ethyl-(E)-2-methoxy-4-diethylamino-α-methylcinnamate with 366 nm light results in a rapid decrease in absorbance as the cis photoisomer is formed (In all photolyses reported here, except for the laser flash studies, the source lamp was a mercury 500 W high pressure lamp. The 366 nm emission was isolated by a Bausch and Lomb grating monochromator). […] Photolysis for 5 minutes of DEA acyl in 98% ethanol/2% pH 7.4 Tris buffer gives a sharp decrease in the absorbance at 360 nm, followed by a slow increase in absorbance at 380 nm due to the dark formation of the 3-methyl-7-N,N-diethylamino-coumarin (hereafter "the coumarin"). The increase in the absorbance due to the coumarin is first order with kc =7.17·10^-4 s^-1. […]
No evidence for a cis acyl enzyme photoisomer is seen by conventional spectroscopy. […] For both DEA acyl and DEA acyl-thrombin, the flash results in an immediate decrease in absorbance at 380 nm, followed by a first order increase of absorbance as the coumarin forms from the cis intermediate.

Row | Compound | yield of coumarin on photolysis (under all of the conditions described) | cis photoisomer in the mixture at the photostationary state (366 nm light) [%]
1 | CCOC(=O)/C(C)=C/c1ccc(N(CC)CC)cc1O [DEA acyl, Ethyl-(E)-2-hydroxy-4-diethylamino-α-methylcinnamate] | essentially quantitative | 
2 | CCOC(=O)/C(C)=C/c1ccc(N(CC)CC)cc1OC [Ethyl-(E)-2-methoxy-4-diethylamino-α-methylcinnamate] |  | 60
